Results from article PMC9234244.

Legend:
Test in all cases: co-IP; HEK293T cells co-transfected; whole cell lysates incubated with the antibody at 4 °C overnight, then protein G or protein A beads 6 h at 4 °C; Western blotting
[1] = molecular target: EC domain of FSTL1 (extracellular calcium–binding domain)
[2] = molecular target: 3× FLAG-VWC domain of FSTL1
[3] = molecular target: EC–VWC domains of FSTL1
[4] = molecular target: 3× FLAG-FS domain of FSTL1

binding [1]: binds
binding [2]: no binding
binding [3]: binds
binding [4]: no binding
B1: SNAP-tagged FZD4 (SNAP-FZD4) (receptor, UniProt Q61088 37-537)
chain: FGDEEERRCDPIRIAMCQNLGYNVTKMPNLVGHELQTDAELQLTTFTPLIQYGCSSQLQFFLCSVYVPMCTEKINIPIGPCGGMCLSVKRRCEPVLREFGFAWPDTLNCSKFPPQNDHNHMCMEGPGDEEVPLPHKTPIQPGEECHSVGSNSDQYIWVKRSLNCVLKCGYDAGLYSRSAKEFTDIWMAVWASLCFISTTFTVLTFLIDSSRFSYPERPIIFLSMCYNIYSIAYIVRLTVGRERISCDFEEAAEPVLIQEGLKNTGCAIIFLLMYFFGMASSIWWVILTLTWFLAAGLKWGHEAIEMHSSYFHIAAWAIPAVKTIVILIMRLVDADELTGLCYVGNQNLDALTGFVVAPLFTYLVIGTLFIAAGLVALFKIRSNLQKDGTKTDKLERLMVKIGVFSVLYTVPATCVIACYFYEISNWALFRYSADDSNMAVEMLKIFMSLLVGITSGMWIWSAKTLHTWQKCSNRLVNSGKVKREKRGNGWVKPGKGNETVV
modifications: BG-PEG12-Biotin on the SNAP tag (cell surface labelling experiment only)

Results are given in words; binding and its absence hold for the method and conditions named. In cells and extracts the contact can be indirect. For some of these results: Binding calls can cover weak binding; strength is not graded here. Tags and fused reporters may be left off the sequences shown.
